Experimental data: PMC3548793
Changes are numbered by the printed parent chain. Numbers in names are those of the source. No constants are given. Whether binding was seen depends on the method and setting. Binding seen in cells or lysates may run through a third protein. Some results given as binding are weak or reduced against the parent protein; the word gives no strength. Where a sequence is shown, tags or fusion partners need not be part of it.

T1: GFP-Sec13 (UniProt P55735)
T1 sequence: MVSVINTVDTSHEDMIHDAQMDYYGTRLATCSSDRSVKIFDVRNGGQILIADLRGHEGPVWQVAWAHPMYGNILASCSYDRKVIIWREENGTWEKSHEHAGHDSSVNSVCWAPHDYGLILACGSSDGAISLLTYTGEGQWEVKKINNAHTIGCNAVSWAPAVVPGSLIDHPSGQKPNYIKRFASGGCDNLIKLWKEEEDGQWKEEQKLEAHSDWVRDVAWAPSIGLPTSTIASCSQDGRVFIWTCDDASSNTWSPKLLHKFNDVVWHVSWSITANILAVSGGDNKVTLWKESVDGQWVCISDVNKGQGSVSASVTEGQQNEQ

B1: FLAG-tagged Sec31 S527A/S799A (protein, UniProt O94979 1-1220)
chain: MKLKEVDRTAMQAWSPAQNHPIYLATGTSAQQLDATFSTNASLEIFELDLSDPSLDMKSCATFSSSHRYHKLIWGPYKMDSKGDVSGVLIAGGENGNIILYDPSKIIAGDKEVVIAQNDKHTGPVRALDVNIFQTNLVASGANESEIYIWDLNNFATPMTPGAKTQPPEDISCIAWNRQVQHILASASPSGRATVWDLRKNEPIIKVSDHSNRMHCSGLAWHPDVATQMVLASEDDRLPVIQMWDLRFASSPLRVLENHARGILAIAWSMADPELLLSCGKDAKILCSNPNTGEVLYELPTNTQWCFDIQWCPRNPAVLSAASFDGRISVYSIMGGSTDGLRQKQVDKLSSSFGNLDPFGTGQPLPPLQIPQQTAQHSIVLPLKKPPKWIRRPVGASFSFGGKLVTFENVRMPSHQGAEQQQQQHHVFISQVVTEKEFLSRSDQLQQAVQSQGFINYCQKKIDASQTEFEKNVWSFLKVNFEDDSRGKYLELLGYRKEDLGKKIALALNKVDGANVALKDSDQVAQADGEESPAAEEQLLGEHIKEEKEESEFLPSSGGTFNISVSGDIDGLITQALLTGNFESAVDLCLHDNRMADAIILAIAGGQELLARTQKKYFAKSQSKITRLITAVVMKNWKEIVESCDLKNWREALAAVLTYAKPDEFSALCDLLGTRLENEGDSLLQTQACLCYICAGNVEKLVACWTKAQDGSHPLSLQDLIEKVVILRKAVQLTQAMDTSTVGVLLAAKMSQYANLLAAQGSIAAALAFLPDNTNQPNIMQLRDRLCRAQGEPVAGHEAPKIPYEKQQLPKGRPGPVAGHHQMPRVQTQQYYPHGENPPPPGFIMHGNVNPNAAGQLPTSPGHMHTQVPPYPQPQPYQPAQPYPFGTGGSAMYRPQQPVAPPTSNAYPNTPYISSASSYTGQSQLYAAQHQASSPTSSPATSFPPPPSSGASFQHGGPGAPPSSSAYALPPGTTGTLPAASELPASQRTGPQNGWNDPPALNRVPKKKKMPENFMPPVPITSPIMNPLGDPQSQMLQQQPSAPVPLSSQSSFPQPHLPGGQPFHGVQQPLGQTGMPPSFSKPNIEGAPGAPIGNTFQHVQSLPTKKITKKPIPDEHLILKTTFEDLIQRCLSSATDPQTKRKLDDASKRLEFLYDKLREQTLSPTITSGLHNIARSIETRNYSEGLTMHTHIVSTSNFSETSAFMPVLKVVLTQANKLGV
B2: FLAG-tagged Sec31 S527A (protein, UniProt O94979 1-1220)
chain: B1 chain with A799S
B3: FLAG-tagged Sec31 S799A (protein, UniProt O94979 1-1220)
chain: B1 chain with A527S
B4: FLAG-tagged wild type (WT) Sec31 (protein, UniProt O94979 1-1220)
chain: B1 chain with A527S, A799S

Molecular target: T1, GFP-Sec13
Assay: co-IP; HEK293 cells co-transfected with FLAG-tagged Sec31 (WT or mutants) and GFP-tagged Sec23 or GFP-Sec13; GFP-tagged protein immunoprecipitated with anti-GFP beads, blot with anti-FLAG; 10 mM HEPES-KOH pH 7.4, 100 mM KCl, 0.1 mM DTT, 2.5 mM MgCl2, 1% Triton X-100, 30 min at 4°C; in Figure 6 cells transfected two days before with or without siRNA1 to CK2 alpha1

binding, binds:
B1
B2
B3
B4
